Among the data in publication PMC3716640 are binding values, retold here.

Experiment [1] has as its target T1, GST-RasGEF1B, bacteria purified (UniProt Q0VAM2).
T1 sequence: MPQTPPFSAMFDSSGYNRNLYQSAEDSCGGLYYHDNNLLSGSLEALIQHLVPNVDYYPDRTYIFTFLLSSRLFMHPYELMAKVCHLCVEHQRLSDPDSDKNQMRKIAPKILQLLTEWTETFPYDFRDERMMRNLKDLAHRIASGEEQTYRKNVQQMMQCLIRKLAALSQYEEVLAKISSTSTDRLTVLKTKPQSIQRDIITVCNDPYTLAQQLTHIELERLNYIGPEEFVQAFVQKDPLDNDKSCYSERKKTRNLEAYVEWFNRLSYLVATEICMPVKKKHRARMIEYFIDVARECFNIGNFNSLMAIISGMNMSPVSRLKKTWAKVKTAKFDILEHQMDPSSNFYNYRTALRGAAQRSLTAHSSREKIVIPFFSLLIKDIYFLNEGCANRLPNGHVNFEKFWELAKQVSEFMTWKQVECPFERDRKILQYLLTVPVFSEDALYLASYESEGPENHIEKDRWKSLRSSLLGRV
Put plainly: pull-down; 200 µg GST-RasGEF1B immobilised on GSH beads, incubated with 500 µg His-Ccdc124 at 4°C for 1 hour; 50 mM Tris HCl pH 7.5, 100 mM NaCl, 3 mM β-mercaptoethanol; 10 washes; Coomassie-stained gel; both purified.

Experiment [2] addresses T2, Flag-Ccdc124 (N-terminus flag-tagged Ccdc124) (human) (UniProt Q96CT7).
T2 sequence: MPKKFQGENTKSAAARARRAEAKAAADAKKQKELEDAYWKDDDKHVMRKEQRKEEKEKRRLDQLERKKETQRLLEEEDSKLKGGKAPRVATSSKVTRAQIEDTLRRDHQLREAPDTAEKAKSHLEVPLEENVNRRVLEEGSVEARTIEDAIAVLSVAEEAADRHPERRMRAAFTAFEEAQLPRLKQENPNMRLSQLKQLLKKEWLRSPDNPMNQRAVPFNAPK
Put plainly: co-IP; HEK-293 cells co-transfected; NP-40 lysis buffer; precipitation by anti-Flag beads; immunoblots with anti-GFP and anti-Flag-HRP.

These are yes or no findings as the source states them, for the method shown. For some assays here: Binding seen in cells or lysates may run through a third protein. Some binding calls cover weakened binding; strength is not graded here. Where a sequence is shown, tags or fusion partners need not be part of it.

B1: His-tagged Ccdc124, bacteria purified (protein, UniProt Q96CT7 1-223)
chain: MPKKFQGENTKSAAARARRAEAKAAADAKKQKELEDAYWKDDDKHVMRKEQRKEEKEKRRLDQLERKKETQRLLEEEDSKLKGGKAPRVATSSKVTRAQIEDTLRRDHQLREAPDTAEKAKSHLEVPLEENVNRRVLEEGSVEARTIEDAIAVLSVAEEAADRHPERRMRAAFTAFEEAQLPRLKQENPNMRLSQLKQLLKKEWLRSPDNPMNQRAVPFNAPK
Consider B1, for which, in experiment [1], the binding result is given as “binds”.

B2: GFP-RasGEF1B (protein, UniProt Q0VAM2 1-473)
chain: MPQTPPFSAMFDSSGYNRNLYQSAEDSCGGLYYHDNNLLSGSLEALIQHLVPNVDYYPDRTYIFTFLLSSRLFMHPYELMAKVCHLCVEHQRLSDPDSDKNQMRKIAPKILQLLTEWTETFPYDFRDERMMRNLKDLAHRIASGEEQTYRKNVQQMMQCLIRKLAALSQYEEVLAKISSTSTDRLTVLKTKPQSIQRDIITVCNDPYTLAQQLTHIELERLNYIGPEEFVQAFVQKDPLDNDKSCYSERKKTRNLEAYVEWFNRLSYLVATEICMPVKKKHRARMIEYFIDVARECFNIGNFNSLMAIISGMNMSPVSRLKKTWAKVKTAKFDILEHQMDPSSNFYNYRTALRGAAQRSLTAHSSREKIVIPFFSLLIKDIYFLNEGCANRLPNGHVNFEKFWELAKQVSEFMTWKQVECPFERDRKILQYLLTVPVFSEDALYLASYESEGPENHIEKDRWKSLRSSLLGRV
Regarding B2, the binding result in experiment [2] is “binds”.
